Binding data for one substance are collected here from paper PMC7674309.

Chains of the proteins cited; added tags and fusions are not shown.
UniProt P08670: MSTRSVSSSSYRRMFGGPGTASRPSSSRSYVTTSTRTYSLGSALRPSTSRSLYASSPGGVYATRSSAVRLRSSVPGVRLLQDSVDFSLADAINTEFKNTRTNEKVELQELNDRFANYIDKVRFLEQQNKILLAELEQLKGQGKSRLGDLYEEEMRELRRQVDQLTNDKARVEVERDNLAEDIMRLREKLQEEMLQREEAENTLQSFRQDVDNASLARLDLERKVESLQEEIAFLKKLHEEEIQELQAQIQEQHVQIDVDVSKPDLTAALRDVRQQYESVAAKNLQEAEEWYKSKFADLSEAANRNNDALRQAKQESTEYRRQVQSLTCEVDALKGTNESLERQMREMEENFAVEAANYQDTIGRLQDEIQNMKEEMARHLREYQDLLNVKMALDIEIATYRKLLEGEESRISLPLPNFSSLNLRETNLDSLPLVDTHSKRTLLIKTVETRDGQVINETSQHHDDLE

Test [1] concerns the target T1, synaptosomal-associated protein 23 (SNAP23) (human (endogenous in HUVEC)) (UniProt O00161).
T1 sequence: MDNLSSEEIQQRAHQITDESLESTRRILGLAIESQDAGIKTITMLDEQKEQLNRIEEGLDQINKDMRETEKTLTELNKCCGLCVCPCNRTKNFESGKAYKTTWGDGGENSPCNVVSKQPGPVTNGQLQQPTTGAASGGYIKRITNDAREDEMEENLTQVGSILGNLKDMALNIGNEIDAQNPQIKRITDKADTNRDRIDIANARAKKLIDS
Description: proximity ligation; Duolink in situ PLA in fixed, saponin-permeabilised HUVECs sheared by PS or OS for 1 h; primary antibodies against SNAP23 and vimentin.

Test [2] addresses T1, synaptosomal-associated protein 23 (SNAP23) (human (endogenous in HUVEC)). Description: co-IP; HUVEC lysate (50 mM Tris-HCl pH 7.4, 100 mM NaCl, 1% NP-40, 1 mM EDTA); IP with SNAP23 antibody or control IgG overnight at 4°C, protein A/G plus-agarose beads; IB vimentin; cells static, or exposed to PS or OS for 1 h.

These are yes or no findings as the source states them, for the method shown. In cells and extracts the contact can be indirect. Some results given as binding are weak or reduced against the parent protein; the word gives no strength.

For the substance vimentin (from UniProt P08670 1-466), the binding result in test [1] and in test [2] was “binds” each time.
